Paper PMC6199744, “Development of Chemical Proteomics for the Folateome and Analysis of the Kinetoplastid Folateome” (ACS Infectious Diseases, 2018)
The source gives many values for each of these; only a part stands here.

Tested on: L. major lysate proteins
Assay: Multitargeted bead mixture chemoproteomics, single concentration competition, proteome-wide
Type: binding
Details: vs vehicle control

**Q.** Which fold change (protein LMJF.15.0240 N[…]-TRANSFER PROTEIN, PUTATIVE,STEROL CARRIER PROTEIN, PUTATIVE) does the source give for `Nc1nc2[nH]cc(CCc3ccc(C(=O)N[C@@H](CCC(=O)O)C(=O)O)cc3)c2c(=O)[nH]1` [PTX, pemetrexed] here?
**A.** 1.24

**Q.** What about the fold change (protein LMJF.15.0950 40S RIBOSOMAL PROTEIN S3, PUTATIVE) of the same molecule?
**A.** 1.05

**Q.** What about the fold change (protein LMJF.16.0440 FUCOSE KINASE, PUTATIVE) of the same molecule?
**A.** 0.91

**Q.** And the fold change (protein LMJF.16.0550 OROTIDINE-5-PHOSPHATE DECARBOXYLASE/OROTATE PHOSPHORIBOSYLTRANSFERASE, PUTATIVE)?
**A.** 0.86

**Q.** What about the fold change (protein LMJF.18.0700 HY[…], CONSERVED) of the same molecule?
**A.** 0.73

**Q.** What about the fold change (protein LMJF.18.1280 HY[…], CONSERVED) of the same molecule?
**A.** 0.87

**Q.** And the fold change (protein LMJF.19.0060 40S RIBOSOMAL PROTEIN S2)?
**A.** 1.37

**Q.** What about the fold change (protein LMJF.19.0490 HY[…], CONSERVED) of the same molecule?
**A.** 0.77

**Q.** And the fold change (protein LMJF.19.0710 […] DEHYDROGENASE)?
**A.** 0.96

**Q.** What about the fold change (protein LMJF.21.0250 HEXOKINASE, PUTATIVE) of the same molecule?
**A.** 0.86

**Q.** What about the fold change (protein LMJF.21.0760 […]-ATP-ASE SUBUNIT 5, PUTATIVE,19S […]) of the same molecule?
**A.** 0.7

**Q.** What about the fold change (protein LMJF.21.0800 HY[…], CONSERVED) of the same molecule?
**A.** 0.49

**Q.** What about the fold change (protein LMJF.21.1250 ADENYLATE KINASE, PUTATIVE) of the same molecule?
**A.** 0.77

**Q.** What about the fold change (protein LMJF.21.1770 ATP SYNTHASE F1 SUBUNIT GAMMA PROTEIN, PUTATIVE) of the same molecule?
**A.** 0.96

**Q.** What about the fold change (protein LMJF.21.1860 BETA TUBULIN) of the same molecule?
**A.** 0.99

**Q.** And the fold change (protein LMJF.22.0300 HY[…], CONSERVED)?
**A.** 0.77

**Q.** And the fold change (protein LMJF.22.0410 HY[…], CONSERVED)?
**A.** 0.85

**Q.** And the fold change (protein LMJF.22.0620 […] SUBUNIT 5, PUTATIVE)?
**A.** 1.01

**Q.** And the fold change (protein LMJF.22.0990 HY[…], CONSERVED)?
**A.** 0.94

**Q.** What about the fold change (protein LMJF.22.1290 RIBONUCLEOSIDE-DIPHOSPHATE REDUCTASE SMALL CHAIN, PUTATIVE) of the same molecule?
**A.** 0.72

**Q.** What about the fold change (protein LMJF.22.1500 ATP-DEPENDENT DEAD/H RNA HELICASE, PUTATIVE) of the same molecule?
**A.** 1.18

**Q.** What about the fold change (protein LMJF.23.0380 ATP-BINDING CASSETTE PROTEIN SUBFAMILY G, MEMBER 5, PUTATIVE) of the same molecule?
**A.** 0.84

**Q.** And the fold change (protein LMJF.23.0830 NA/H ANTIPORTER-LIKE PROTEIN)?
**A.** 0.89

**Q.** What about the fold change (protein LMJF.23.1350 ACETYLTRANSFERASE-LIKE PROTEIN) of the same molecule?
**A.** 0.84

**Q.** What about the fold change (protein LMJF.25.1210 HY[…], CONSERVED) of the same molecule?
**A.** 0.87

**Q.** What about the fold change (protein LMJF.26.0280 HY[…], CONSERVED) of the same molecule?
**A.** 0.86

**Q.** What about the fold change (protein LMJF.27.0420 RIBOKINASE, PUTATIVE) of the same molecule?
**A.** 0.97

**Q.** What about the fold change (protein LMJF.27.1810 GLYCOSOMAL PHOSPHOENOLPYRUVATE CARBOXYKINASE, PUTATIVE) of the same molecule?
**A.** 1.03

**Q.** And the fold change (protein LMJF.27.2630 ATP-DEPENDENT CLP PROTEASE SUBUNIT, HEAT SHOCK PROTEIN 78 (HSP78), PUTATIVE)?
**A.** 0.76

**Q.** And the fold change (protein LMJF.28.2250 […] PROTEIN-LIKE PROTEIN)?
**A.** 1.14

**Q.** What about the fold change (protein LMJF.29.0060 TRYPTOPHANYL-TRNA SYNTHETASE, PUTATIVE) of the same molecule?
**A.** 0.92

**Q.** And the fold change (protein LMJF.29.1550 HY[…], CONSERVED)?
**A.** 0.46

**Q.** What about the fold change (protein LMJF.29.1720 HISTONE H2A, PUTATIVE) of the same molecule?
**A.** 1

**Q.** What about the fold change (protein LMJF.29.1830 DIHYDROLIPOAMIDE DEHYDROGENASE, PUTATIVE) of the same molecule?
**A.** 0.76

**Q.** And the fold change (protein LMJF.29.2440 HY[…], CONSERVED)?
**A.** 0.76

**Q.** What about the fold change (protein LMJF.30.1010 UBIQUITIN FUSION D[…] 2, PUTATIVE,UBIQUITIN C[…] E4 B, PUTATIVE) of the same molecule?
**A.** 0.47

**Q.** What about the fold change (protein LMJF.30.1940 SUCCINYL-COA:3-KETOACID-COENZYME A TRANSFERASE- LIKE PROTEIN) of the same molecule?
**A.** 0.9

**Q.** And the fold change (protein LMJF.30.3110 S-ADENOSYLMETHIONINE DECARBOXYLASE)?
**A.** 0.64

**Q.** What about the fold change (protein LMJF.30.3190 3-HYDROXY-3-METHYLGLUTARYL-COA REDUCTASE) of the same molecule?
**A.** 0.64

**Q.** What about the fold change (protein LMJF.30.3390 CAS/CSE/IMPORTIN DOMAIN PROTEIN, PUTATIVE) of the same molecule?
**A.** 0.74

**Q.** What about the fold change (protein LMJF.31.1800 AMINO ACID PERMEASE) of the same molecule?
**A.** 0.93

**Q.** What about the fold change (protein LMJF.31.2640 2-OXOGLUTARATE DEHYDROGENASE, E3 COMPONENT, LIPOAMIDEDEHYDROGENASE-LIKE PROTEIN) of the same molecule?
**A.** 0.94

**Q.** And the fold change (protein LMJF.31.2650 ACETOIN DEHYDROGENASE E3 COMPONENT-LIKE PROTEIN)?
**A.** 0.94

**Q.** What about the fold change (protein LMJF.31.2970 ACETYL-COA CARBOXYLASE, PUTATIVE) of the same molecule?
**A.** 0.73

**Q.** And the fold change (protein LMJF.31.3130 METHYLCROTONOYL-COA CARBOXYLASE BIOTINYLATED SUBUNITPROTEIN-LIKE PROTEIN)?
**A.** 0.85

**Q.** And the fold change (protein LMJF.32.0390 […]-ATP-ASE SUBUNIT 8, PUTATIVE,26S […], PUTATIVE)?
**A.** 0.73

**Q.** And the fold change (protein LMJF.32.3640 HY[…], CONSERVED)?
**A.** 0.7

**Q.** What about the fold change (protein LMJF.33.0830 2,4-DIENOYL-COA REDUCTASE FADH1, PUTATIVE) of the same molecule?
**A.** 0.95

**Q.** What about the fold change (protein LMJF.33.1030 HY[…], CONSERVED) of the same molecule?
**A.** 0.91

**Q.** What about the fold change (protein LMJF.33.1610 PEPTIDASE M20/M25/M40, PUTATIVE) of the same molecule?
**A.** 0.7

**Q.** And the fold change (protein LMJF.34.0010 HY[…], CONSERVED)?
**A.** 0.86

**Q.** And the fold change (protein LMJF.34.3740 SERINE PALMITOYLTRANSFERASE-LIKE PROTEIN)?
**A.** 0.86

**Q.** And the fold change (protein LMJF.35.1880 60S RIBOSOMAL PROTEIN L5, PUTATIVE)?
**A.** 0.93

**Q.** And the fold change (protein LMJF.35.2150 HY[…], CONSERVED)?
**A.** 0.82

**Q.** What about the fold change (protein LMJF.35.2330 HY[…], CONSERVED) of the same molecule?
**A.** 0.63

**Q.** And the fold change (protein LMJF.35.4550 HY[…], CONSERVED)?
**A.** 0.69

**Q.** What about the fold change (protein LMJF.35.4760 HY[…], CONSERVED) of the same molecule?
**A.** 0.9

**Q.** What about the fold change (protein LMJF.35.4860 HY[…], CONSERVED) of the same molecule?
**A.** 0.78

**Q.** And the fold change (protein LMJF.35.5040 polyadenylate-binding protein 1)?
**A.** 0.76

**Q.** What about the fold change (protein LMJF.36.0250 EIF3-INTERACTING PROTEIN-LIKE PROTEIN) of the same molecule?
**A.** 0.87

**Q.** And the fold change (protein LMJF.36.0320 […] 2 SUBUNIT, PUTATIVE)?
**A.** 0.95

**Q.** What about the fold change (protein LMJF.36.1670 HY[…], CONSERVED) of the same molecule?
**A.** 0.52

**Q.** And the fold change (protein LMJF.36.2160 HY[…], CONSERVED)?
**A.** 0.83

**Q.** And the fold change (protein LMJF.36.3760 60S RIBOSOMAL PROTEIN L10A, PUTATIVE)?
**A.** 1.04

**Q.** And the fold change (protein LMJF.36.5100 HY[…], CONSERVED)?
**A.** 0.95
